Results taken from doi:10.1101/393272.
Results are given in words; binding and its absence hold for the method and conditions named. For some assays here: Binding seen in cells or lysates may run through a third protein. Some entries that bind do so weakly or less than the wild type. Tags and fused reporters may be left off the sequences shown.

T1: SUMO3, yeast two-hybrid fusion (Supplemental Fig. S1E) (Arabidopsis thaliana) (UniProt Q9FLP5)
T1 sequence: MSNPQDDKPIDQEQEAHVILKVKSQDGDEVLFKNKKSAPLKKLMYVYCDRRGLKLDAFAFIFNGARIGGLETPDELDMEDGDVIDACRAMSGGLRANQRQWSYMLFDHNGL

T2: SCFP^C-tagged SIZ1 (Arabidopsis thaliana) (UniProt Q680Q4)
T2 sequence: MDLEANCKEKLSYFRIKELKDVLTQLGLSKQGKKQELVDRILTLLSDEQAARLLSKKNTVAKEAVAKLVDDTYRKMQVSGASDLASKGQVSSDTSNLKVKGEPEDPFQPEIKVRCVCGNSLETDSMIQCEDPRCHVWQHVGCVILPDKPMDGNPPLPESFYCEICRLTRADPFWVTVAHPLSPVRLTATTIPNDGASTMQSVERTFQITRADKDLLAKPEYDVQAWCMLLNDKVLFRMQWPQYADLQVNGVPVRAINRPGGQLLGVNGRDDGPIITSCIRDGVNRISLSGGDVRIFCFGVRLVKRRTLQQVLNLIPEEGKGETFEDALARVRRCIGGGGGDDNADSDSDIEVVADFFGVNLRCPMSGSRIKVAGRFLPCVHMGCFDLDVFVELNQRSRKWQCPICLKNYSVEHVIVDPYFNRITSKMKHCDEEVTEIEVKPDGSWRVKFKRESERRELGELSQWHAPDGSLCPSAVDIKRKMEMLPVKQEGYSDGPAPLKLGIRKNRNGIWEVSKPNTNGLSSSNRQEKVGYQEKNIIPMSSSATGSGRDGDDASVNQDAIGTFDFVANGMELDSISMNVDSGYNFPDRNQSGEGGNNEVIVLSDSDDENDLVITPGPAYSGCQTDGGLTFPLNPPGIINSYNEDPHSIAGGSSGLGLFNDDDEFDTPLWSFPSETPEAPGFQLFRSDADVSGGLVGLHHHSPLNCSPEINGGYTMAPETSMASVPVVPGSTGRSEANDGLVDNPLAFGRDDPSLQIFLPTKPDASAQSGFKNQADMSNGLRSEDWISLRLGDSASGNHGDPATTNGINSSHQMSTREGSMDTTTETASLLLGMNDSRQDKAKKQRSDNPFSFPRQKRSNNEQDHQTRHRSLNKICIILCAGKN

B1: SCE1 (SUMO E2 CONJUGATING ENZYME), GAL4 AD fusion (enzyme, UniProt Q42551 1-160)
chain: MASGIARGRLAEERKSWRKNHPHGFVAKPETGQDGTVNLMVWHCTIPGKAGTDWEGGFFPLTMHFSEDYPSKPPKCKFPQGFFHPNVYPSGTVCLSILNEDYGWRPAITVKQILVGIQDLLDTPNPADPAQTDGYHLFCQDPVEYKKRVKLQSKQYPALV
B2: SCFP^N-SCE1 (enzyme, UniProt Q42551 1-160)
chain: B1 chain

How the values were obtained:
[1] = molecular target: T1, SUMO3, yeast two-hybrid fusion (Supplemental Fig. S1E) (Arabidopsis thaliana); experiment: two-hybrid
[2] = molecular target: T2, SCFP^C-tagged SIZ1 (Arabidopsis thaliana); experiment: split reporter

| Binder | binding [1] | binding [2] |
| --- | --- | --- |
| B1 | binds weakly | – |
| B2 | – | binds |
